Reference: PubChem BioAssay AID1224826 (NIAID, 2016)

- Aim: 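Genes that change LPS-induced Tnf promoter activity in mouse macrophages when knocked down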 (primary screen)
- System: RAW264.7 G9 macrophages from mouse bearing reporters for p65 (GFP) and the Tnf promoter (mCherry)
- Reagent: siRNA pool against mouse genes, 100 nM
- Time to read-out: 16 h of LPS stimulation, after 2 days of siRNA transfection
- Challenge: bacterial lipopolysaccharide (Salmonella minnesota R595), 10 ng/ml
- Measured: 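Imaged Tnf reporter mCherry in nuclei, minus background, normalised per plate to the median and expressed as robust z-scores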
- Direction: Tnf reporter robust z-score: higher = stronger Tnf promoter reporter signal after LPS
- Call rule: 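Called active when robust z-score is at most -1.3, matching the median of the Tlr4 knock-down control, or over 3; control wells and wells with under 50 cells never active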
- Calls: active = Tnf reporter clearly lowered or raised; inactive = no clear change in Tnf reporter
Here is an unselected part of about 17,000 deposited reagents. About 1,110 of them (6.6%) were called active. 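Active means lowered or raised reporter signal; replicate intensities are raw and not normalised per plate.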 Reagents against one gene are numbered here. Not all columns of the deposit are shown. Reagent sequences are not shown.

| target gene | reagent no. | Tnf reporter robust z-score | fewer than 50 cells in well | Call |
| --- | --- | --- | --- | --- |
| Pcdhgb1 | 1 | -1.07 | enough cells in well | inactive |
| Klk1b1 | 1 | 0.43 | enough cells in well | inactive |
| Tmem140 | 1 | 3.32 | enough cells in well | active |
| Fgf14 | 1 | 0.55 | enough cells in well | inactive |
| Zbed3 | 1 | -1.1 | enough cells in well | inactive |
| Gp2 | 1 | 0.36 | enough cells in well | inactive |
| Rnf2 | 1 | – | fewer than 50 cells per well; well left out of calls | inactive |
| Ttf2 | 1 | -0.62 | enough cells in well | inactive |
| Dnajc15 | 1 | -0.61 | enough cells in well | inactive |
| Atpsckmt | 1 | 0.31 | enough cells in well | inactive |
| Myf6 | 1 | -0.11 | enough cells in well | inactive |
| Prelid1 | 1 | -0.76 | enough cells in well | inactive |
| Ywhae | 1 | -0.54 | enough cells in well | inactive |
| Sox30 | 1 | 0.18 | enough cells in well | inactive |
| Exo1 | 1 | -0.48 | enough cells in well | inactive |
| Sap30bp | 1 | -0.45 | enough cells in well | inactive |
| Samtor | 1 | -0.37 | enough cells in well | inactive |
| Snca | 1 | -0.91 | enough cells in well | inactive |
| Or5k14 | 1 | 2.24 | enough cells in well | inactive |
| Or5k14 | 2 | -1.34 | enough cells in well | active |
| Dag1 | 1 | 0.93 | enough cells in well | inactive |
| Ostc | 1 | – | fewer than 50 cells per well; well left out of calls | inactive |
| Mpp1 | 1 | -0.83 | enough cells in well | inactive |
| Igfals | 1 | 0.27 | enough cells in well | inactive |
| Ralgds | 1 | -0.4 | enough cells in well | inactive |
| Adcy9 | 1 | -0.91 | enough cells in well | inactive |
| Fdft1 | 1 | 0.32 | enough cells in well | inactive |
| Polr1a | 1 | -1.63 | enough cells in well | active |
| Foxm1 | 1 | -0.11 | enough cells in well | inactive |
| Kit | 1 | -0.99 | enough cells in well | inactive |
| Dbn1 | 1 | – | fewer than 50 cells per well; well left out of calls | inactive |
| Polm | 1 | – | fewer than 50 cells per well; well left out of calls | inactive |
| Cryba1 | 1 | -0.87 | enough cells in well | inactive |
| Atp6v0a2 | 1 | -0.22 | enough cells in well | inactive |
| Tdrp | 1 | -0.59 | enough cells in well | inactive |
| Aff4 | 1 | -0.64 | enough cells in well | inactive |
| Lrrc66 | 1 | -0.73 | enough cells in well | inactive |
| Rnd1 | 1 | 0.8 | enough cells in well | inactive |
| Ifnb1 | 1 | -1.29 | enough cells in well | inactive |
| Fhod3 | 1 | -1.4 | enough cells in well | active |

Reagents listed above called active:
| target gene | reagent no. | Tnf reporter robust z-score | fewer than 50 cells in well | Call |
| --- | --- | --- | --- | --- |
| Tmem140 | 1 | 3.32 | enough cells in well | active |
| Or5k14 | 2 | -1.34 | enough cells in well | active |
| Polr1a | 1 | -1.63 | enough cells in well | active |
| Fhod3 | 1 | -1.4 | enough cells in well | active |
